Results taken from PubChem BioAssay AID1508600 (Functional Genomics Laboratory (NCATS/FGL), 2020).
Hit rate of the full screen: of about 53,000 sequences, about 3,700 (7%) were called active.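 How the source made its calls: active means gene knockdowns whose robust z-score for IL-1 alpha signal is at least 2 or at most -2, so actives lie on both sides; inactive means the rest.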 Some of the results follow.

Experiment: Components of the Cytosolic LPS Sensing Pathway: Gene Identification via Genome-wide siRNA Screen;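 further: robust z of the log signal after scaling to non-targeting control siRNA wells of the plate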
Conditions: RAW264.7 macrophages, IL-1a HTRF, actives lie on both sides, screened at 100 nM (by protocol), cells primed 5 h with Pam3CSK4 first
Summary of the method: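 Read-out: IL-1a HTRF on supernatant, divided by plate negative-control median ×100, log-transformed and converted to robust z-score. Cells were RAW264.7 given 100 nM siRNA, Pam3CSK4-primed 5 hours, then LipidA-transfected 24 hour.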

Question: For CCACCUACCCUUUGAGUGGTT against Slc7a12, which z-score is on record?
Answer: inactive: -1.45

Question: Which z-score does the source give for GGCUGAGAAUGACAGUUCCTT against Srrt here?
Answer: inactive: -0.696

Question: For GGUUUGAGCUCUUUAUUUUTT against Cyp2j13, which z-score is on record?
Answer: inactive: 0.758

Question: For GGUGAAAGACCAUUUAUUUTT against Zxdc, which z-score is on record?
Answer: inactive: 0.657

Question: Which z-score does the source give for GGUUCGAGUCUCUUACUCUTT against Pou4f3 here?
Answer: inactive: -0.574

Question: With AGCGGACUGAUACAUGAAATT against Fhad1 as the sequence, how does the z-score read?
Answer: inactive: -0.129

Question: Which z-score does the source give for GCGGCUAGGAUUUCUGGGATT against Mindy3 here?
Answer: active: 2.34

Question: Which z-score does the source give for GAGCAAUGAGCAGAGAUUCTT against H2-D4 here?
Answer: inactive: 1.93

Question: For GGAAAAAGUGACAAGCAAGTT against Svil, which z-score is on record?
Answer: inactive: -0.943

Question: With GGCGAACUGAAGGAUAUGGTT against Anapc5 as the sequence, how does the z-score read?
Answer: inactive: 0.835

Question: Which z-score does the source give for GGCUUCAGCAUUAAUUGUUTT against Ass1 here?
Answer: inactive: 0.0164

Question: Which z-score does the source give for GGAAGAAGAAAGGCAGCUGTT against Parn here?
Answer: inactive: -1.44

Question: With GGAAAUCAAGCUUUAGGGCTT against Myct1 as the sequence, how does the z-score read?
Answer: inactive: 1.19

Question: With GGAUAUGAAGGAAUAUGUGTT against Leng8 as the sequence, how does the z-score read?
Answer: inactive: -0.455

Question: With GGAAGACAGAAAGUCAUUUTT against Chd1l as the sequence, how does the z-score read?
Answer: inactive: -0.987

Question: For GGGUUUGGAGUUUGAUUUATT against Plaat3, which z-score is on record?
Answer: inactive: 0.446

Question: With GGUGGAGCCAUGUGCAUUGTT against Olfr1246 as the sequence, how does the z-score read?
Answer: inactive: 0.812

Question: Which z-score does the source give for GCUCCUGGGAUACGUAUUATT against Abhd16a here?
Answer: active: -2

Question: For GGCACCAAACUCAGCCUUATT against Csk, which z-score is on record?
Answer: inactive: -0.181

Question: For CGUGGUUUCAGAUUUACAATT against Cnksr3, which z-score is on record?
Answer: inactive: 0.434

Question: For GGGCCAGAAUCCAAAUGCUTT against Tox, which z-score is on record?
Answer: inactive: -0.434

Question: With CCCUUUUGUUUAGCUGAUCTT against Glrp1 as the sequence, how does the z-score read?
Answer: active: -2.14

Question: With GCAAACAUGUCAAGUCCGATT against Actl6b as the sequence, how does the z-score read?
Answer: inactive: 1.07

Question: Which z-score does the source give for GGUUGUUGUUUCAGCAUCCTT against Mrpl18 here?
Answer: inactive: -1.47

Question: For GGCUAUCUGCUUAUGCUGGTT against Ptch2, which z-score is on record?
Answer: inactive: -0.314

Question: Which z-score does the source give for GGGCCCUUAGAAAAUGUGUTT against Lime1 here?
Answer: inactive: 0.326

Question: For GGAAGUCUAUGUAGGUUCATT against Kif22, which z-score is on record?
Answer: inactive: 0.388

Question: Which z-score does the source give for GGUAUUAUCUGCAUGGGCATT against Mkrn3 here?
Answer: inactive: 0.273

Question: With CGCAUGCACUGAAAUCUACTT against Pop7 as the sequence, how does the z-score read?
Answer: inactive: -1.52

Question: With GGUGGACACACACAUCCACTT against Ampd2 as the sequence, how does the z-score read?
Answer: inactive: 0.426

Question: For GGCCGCCAUUUUGGCAAGATT against Fbxo27, which z-score is on record?
Answer: active: 3.41

Question: For CGAGAGGUUUGUCCAUAGATT against Tac4, which z-score is on record?
Answer: inactive: -0.86

Question: For “GCCCAGAGAAUGACCUAUATT against 9130019O22Rik”, which z-score is on record?
Answer: inactive: 0.54

Question: For CGAGCAUGCAUUCAAAGGATT against Lrrc3b, which z-score is on record?
Answer: inactive: 1.33

Question: With GGCAGCUUCUGUUCUUUUATT against Ube3c as the sequence, how does the z-score read?
Answer: inactive: 0.269

Question: With GGACCUGCCAAAAGUUGUGTT against Uqcrc1 as the sequence, how does the z-score read?
Answer: inactive: -1.16

Question: Which z-score does the source give for GGAUAGUUGAAGUCCUAAATT against Il9 here?
Answer: inactive: -1.15

Question: Which z-score does the source give for GCUUCUGUAAAUCCCAUAUTT against Olfr26 here?
Answer: inactive: -0.0814

Question: For GGAACUGCUGUACAGGUACTT against Mest, which z-score is on record?
Answer: inactive: -0.807

Question: For CGGAGGGAAAUGACAUUGCTT against Acr, which z-score is on record?
Answer: inactive: 0.585

Question: With GGAGAUUUCAUGAACUCUGTT against Srrm3 as the sequence, how does the z-score read?
Answer: inactive: -0.141

Question: For GGCUAUGACAAUGCCUACATT against Maged2, which z-score is on record?
Answer: inactive: 0.00495

Question: For GGGUUCAAGUCAGUGAUGUTT against Dnajb8, which z-score is on record?
Answer: inactive: -0.271

Question: With GUGAAUGGUCAGAAGUUUGTT against Elk4 as the sequence, how does the z-score read?
Answer: inactive: 1.43

Question: With GCUGUUCUGCCUCUAAGACTT against Zfp597 as the sequence, how does the z-score read?
Answer: inactive: 0.925

Question: With CCAGAAUUGGCAGAUUUGCTT against Mtor as the sequence, how does the z-score read?
Answer: inactive: -0.22

Question: Which z-score does the source give for GCUUUAGAUACGUGAUUAGTT against Desi2 here?
Answer: inactive: -0.125

Question: Which z-score does the source give for GGAGAUCAGCUGUCUAAUGTT against Tmem237 here?
Answer: inactive: -0.207

Question: With CCUGAUCCCAUGUAAAACATT against Sspn as the sequence, how does the z-score read?
Answer: inactive: -0.35

Question: Which z-score does the source give for CCUAGUAAUGUCCAUUGUGTT against Endod1 here?
Answer: inactive: 0.0364

Question: Which z-score does the source give for GCAGCACUGGAAUAUUUGGTT against Prxl2a here?
Answer: inactive: -0.952

Question: With GGAUCGAAUCUUUACCUAUTT against Col9a1 as the sequence, how does the z-score read?
Answer: inactive: 0.932

Question: With GGAUCAGACAUGCAAGAGGTT against Xlr5c as the sequence, how does the z-score read?
Answer: inactive: -1.81

Question: For GGAUGAGUACAGCAUUCUGTT against Rhebl1, which z-score is on record?
Answer: inactive: -0.733

Question: For GGAAGAUGAACAAACGACATT against Sec11c, which z-score is on record?
Answer: inactive: -0.0219

Question: With GGAAACAUCUGGACUCCACTT against Hsd17b14 as the sequence, how does the z-score read?
Answer: inactive: -1.45

Question: With “GGACUUCACAUUCUUGAGATT against A130010J15Rik” as the sequence, how does the z-score read?
Answer: inactive: -0.232

Question: Which z-score does the source give for GGUGUUUACACAGAGAAUGTT against Gpr143 here?
Answer: inactive: -0.162

Question: Which z-score does the source give for GCAUCGUUGACUAAAGUGGTT against Grm3 here?
Answer: inactive: -0.356

Question: Which z-score does the source give for GGGCAACUAUUGAUGAGGUTT against Acap3 here?
Answer: inactive: -0.138

Question: With GGCCAGUUGAAUGUGUCUGTT against Acss1 as the sequence, how does the z-score read?
Answer: inactive: -0.0382

Question: Which z-score does the source give for GGUCUCAAUAAACUUCAGGTT against Mfap4 here?
Answer: inactive: 0.926

Question: Which z-score does the source give for CGCCACUAUCCUAACUUGCTT against Olfr963 here?
Answer: inactive: 0.215

Question: For CCUACAACAGAUGUGCAGCTT against Fam222b, which z-score is on record?
Answer: inactive: -1.82

Question: For GGAUAACAGUAAAUGGCUUTT against Zkscan8, which z-score is on record?
Answer: inactive: 0.152

Question: With CCAGUAAAACCUCUAACAATT against Kremen1 as the sequence, how does the z-score read?
Answer: inactive: -0.521

Question: With GGAGCAGGUUGGCUAUUUGTT against Ppp6c as the sequence, how does the z-score read?
Answer: inactive: 0.164

Question: For CCUUGCUCUUUCCAGCUCUTT against Olfr704, which z-score is on record?
Answer: inactive: 0.332
